# Measurements taken from PubChem BioAssay AID1117319 (Southern Research Institute, 2015).
# Chains of the proteins cited; added tags and fusions are not shown. Lines headed by an entry give the natural chain unless they say otherwise; changes in a name come on top.
# UniProt P69720: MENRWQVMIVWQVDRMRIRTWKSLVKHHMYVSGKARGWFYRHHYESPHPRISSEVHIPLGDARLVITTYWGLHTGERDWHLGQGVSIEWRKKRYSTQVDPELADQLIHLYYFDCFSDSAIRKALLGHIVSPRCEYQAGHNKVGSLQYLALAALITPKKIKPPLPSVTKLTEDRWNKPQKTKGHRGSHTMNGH
# UniProt P69721: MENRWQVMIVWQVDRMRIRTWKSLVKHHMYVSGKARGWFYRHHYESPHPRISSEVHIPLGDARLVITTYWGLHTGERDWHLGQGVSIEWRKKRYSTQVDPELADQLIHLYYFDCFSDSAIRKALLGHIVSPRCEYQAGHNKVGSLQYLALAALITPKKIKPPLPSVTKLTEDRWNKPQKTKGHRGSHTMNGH
# UniProt P69722: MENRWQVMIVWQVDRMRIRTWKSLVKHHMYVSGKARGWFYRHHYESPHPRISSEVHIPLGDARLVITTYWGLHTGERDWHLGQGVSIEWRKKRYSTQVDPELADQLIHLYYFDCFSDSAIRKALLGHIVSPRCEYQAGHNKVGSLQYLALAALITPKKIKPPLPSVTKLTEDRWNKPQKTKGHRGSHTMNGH
# UniProt P69723: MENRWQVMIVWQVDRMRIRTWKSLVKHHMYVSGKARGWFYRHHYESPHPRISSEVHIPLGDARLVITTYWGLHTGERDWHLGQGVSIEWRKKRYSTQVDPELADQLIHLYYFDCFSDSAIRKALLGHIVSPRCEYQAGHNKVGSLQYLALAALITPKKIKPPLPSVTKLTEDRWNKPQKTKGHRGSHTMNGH
# UniProt Q9HC16: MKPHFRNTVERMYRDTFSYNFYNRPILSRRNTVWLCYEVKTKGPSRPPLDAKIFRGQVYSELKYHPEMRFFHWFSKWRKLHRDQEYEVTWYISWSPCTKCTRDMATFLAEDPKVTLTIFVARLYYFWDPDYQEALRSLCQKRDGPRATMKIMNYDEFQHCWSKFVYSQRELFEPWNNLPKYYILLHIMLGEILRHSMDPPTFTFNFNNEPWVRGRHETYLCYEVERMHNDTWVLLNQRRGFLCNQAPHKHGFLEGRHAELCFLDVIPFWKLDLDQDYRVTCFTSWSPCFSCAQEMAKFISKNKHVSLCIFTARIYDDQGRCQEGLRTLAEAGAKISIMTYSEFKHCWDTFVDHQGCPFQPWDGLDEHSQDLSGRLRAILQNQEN
# Among all 260,000 compounds or so, about 1,500 (0.58%) were called active. The shares of active, inactive and inconclusive entries below differ from those in the screen.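 Rule for the calls: active = inhibition above a set limit at one or more doses, reproduced on every date tested; inconclusive = results disagree between test dates, or hit never tested in dose response; inactive = the rest.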
# Biological target: Virion infectivity factor (Human immunodeficiency virus type 1 group M subtype B (isolate BH10)) + Virion infectivity factor (Human immunodeficiency virus type 1 group M subtype B (isolate BRU/LAI)) + Virion infectivity factor (Human immunodeficiency virus type 1 group M subtype B (isolate PCV12)) + Virion infectivity factor (Human immunodeficiency virus type 1 group M subtype B (isolate HXB2)) + DNA dC->dU-editing enzyme APOBEC-3G (Homo sapiens) (UniProt P69720+P69721+P69722+P69723+Q9HC16)
# Assay: inhibitors of Vif binding to APOBEC3G peptide, primary screen, biochemical, TR-FRET, GST-Vif 1-94, biotin-A3G peptide, dose response retest (AID 1117319);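 note: Vif residues 1-94 fused to GST binding biotinylated APOBEC3G peptide 110-148; 0% = full assay without inhibitor and 100% = GST in place of GST-Vif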
# Settings: active compounds read high
row,SMILES,inhibition
1,CC(c1ccco1)N(C(=O)COc1ccc(Cl)cc1Cl)c1ccccn1 (centres undefined),inconclusive: 57.9%
2,O=C(COC(=O)c1nc(Cl)ccc1Cl)Nc1ccccc1OC(F)F,inconclusive: 33.5%
3,CCOC(=O)C1=C(CS(=O)(=O)c2ccc(F)c(C)c2)NC(=O)NC1c1ccc(O)c(O)c1 (centres undefined),inconclusive: 33.6%
4,CC#CCN(CC#CC)S(=O)(=O)c1ccc(S(=O)(=O)N2CCOCC2)cc1,inconclusive: 43.7%
5,CN(c1ccc(OCC(=O)NC2CCC(O)CC2)cc1)S(=O)(=O)c1ccc(Cl)cc1 (centres undefined),inactive: -2.71%
6,CC(C)(C)OC(=O)NCCc1nnc(SCc2cccc(Cl)c2)o1,inconclusive: 58%
7,CC1CCC/C(=C\Nc2ccc3c(c2)OCO3)C1=O (centres undefined),inconclusive: 41.2%
8,O=C(O)Cn1cccc1C(=O)c1ccccc1,inconclusive: 50.8%
9,COCC(C)NC(C(=O)Nc1ccc(C)c(Cl)c1)c1ccccc1 (centres undefined),inconclusive: 24.7%
10,COc1ccc(NS(=O)(=O)c2cccc(C(=O)NCC3CCCO3)c2)cc1 (centres undefined),inactive: 1.68%
11,CC(=Nc1ccccc1)C1=C(O)CSC1=O,inconclusive: 33.2%
12,COc1ccc(C(=O)NNC(=O)OC(C)(C)C)cc1,inconclusive: 45.9%
13,COC(=O)C1=C(C)N(c2ccccc2)/C(=C/c2ccco2)C1=O,inconclusive: 39%
14,N#C/C(=C/c1ccncc1)c1nc2ccccc2c(=O)[nH]1,inconclusive: 59.7%
15,Cc1ccc(C)c(-n2cc(CNCCCn3cccn3)c(-c3ccccc3)n2)c1,inconclusive: 45.7%
16,c1ccc(Oc2nc(Oc3ccccc3)nc(N3CCOCC3)n2)cc1,inconclusive: 35.9%
17,COc1ccccc1C1C(C#N)=C(N)Oc2cc(C)n(Cc3ccccn3)c(=O)c21 (centres undefined),inconclusive: 41.8%
18,COc1ccc(-c2cnc(SCC(=O)Nc3cc(C)on3)n2Cc2ccco2)cc1,inconclusive: 35.2%
19,CCOc1cccc(/C=C2/NC(=O)N(CC(=O)Nc3cccc(C)c3)C2=O)c1O,inconclusive: 51.6%
20,CN(C)c1ccc(N=Nc2ccc(S(N)(=O)=O)cc2)cc1,inactive: 5.84%

row,SMILES,inhibition
1,Cc1[nH]c2ccccc2c1N=Nc1c(C)n(C)n(-c2ccccc2)c1=O,inconclusive: 43.7%
2,Cc1csc(NC(=O)CSc2nnc(-c3cc(C)on3)o2)n1,inconclusive: 34.2%
3,S=c1[nH]nc(-c2cc(-c3ccccc3)n[nH]2)n1/N=C/C(Br)=C/c1ccccc1,inconclusive: 34.7%
4,Cc1noc(C)c1C(=O)NCCCN1CCCC1=O,inconclusive: 52.7%
5,c1cncc(-c2nc(-c3ccco3)cs2)c1,inconclusive: 53.5%
6,CCOC(=O)c1cc([N+](=O)[O-])c([N+](=O)[O-])cc1NC(C)=O,inconclusive: 42.3%
7,Nc1ccccc1Nc1ccccc1,inconclusive: 37.7%
8,Cc1cc(C)nc(Sc2nc(Cl)nc(N(c3ccccc3)c3ccccc3)n2)n1,inconclusive: 44.2%
9,Cc1oc2c(C)c3oc(=O)c4c(c3cc2c1C)CCC4,inconclusive: 34.6%
10,Cc1cc(C)n2c(Br)c(CSc3nc4ccccc4o3)nc2n1,inconclusive: 37%
11,CN1C(=O)/C(=C\c2ccco2)N=C1c1ccc(Cl)cc1Cl,inconclusive: 53.3%
12,CCCNC(=O)NS(=O)(=O)c1ccc(Cl)cc1,inconclusive: 41.9%
13,Cc1c(CN2CCCCC2)c(O)n(CCCO)c(=O)c1C#N,inconclusive: 36.3%
14,OC(COCC1COc2ccccc2O1)CN1CCCCC1 (centres undefined),inconclusive: 43.9%
15,O=C(O)c1cc([N+](=O)[O-])ccc1Nc1ccccc1,inconclusive: 51.6%
16,COc1cc(C)c(S(=O)(=O)n2nnc3ccccc32)cc1C,inconclusive: 61.5%
17,CCN(CC)S(=O)(=O)c1ccc(C(=O)NCCCN=C2NS(=O)(=O)c3ccccc32)cc1,inconclusive: 33.5%
18,O=C(CCn1c(=S)oc2ccccc21)NC1CCCCCC1,inconclusive: 61.6%
19,O=C(Nc1ccc(OC(F)(F)F)cc1)Nc1cccc([N+](=O)[O-])c1,inconclusive: 41.8%
20,NC(=O)CCn1nc(-c2ccccc2)c2ccccc2c1=O,inconclusive: 49.8%

# Looked up one by one from above:
row,SMILES,inhibition
19,O=C(Nc1ccc(OC(F)(F)F)cc1)Nc1cccc([N+](=O)[O-])c1,inconclusive: 41.8%
14,OC(COCC1COc2ccccc2O1)CN1CCCCC1 (centres undefined),inconclusive: 43.9%
15,O=C(O)c1cc([N+](=O)[O-])ccc1Nc1ccccc1,inconclusive: 51.6%

# (continued)

row,SMILES,inhibition
1,Cc1nn(C)c(C)c1Sc1ccc(Br)cc1,inconclusive: 36.6%
2,Cc1cccc(N(CC(O)CON=C2c3ccccc3-c3ccccc32)S(C)(=O)=O)c1 (centres undefined),inconclusive: 40.3%
3,O=C(O)c1ccccc1-n1ncc2c1/C(=C/c1ccc(Cl)cc1)CC2,inconclusive: 33.5%
4,CC(=O)c1cccc(N(CC(=O)Nc2ccc(F)cc2F)S(C)(=O)=O)c1,inactive: 7.3%
5,O=C(CN1C(=O)CCS(=O)(=O)c2ccccc21)NCc1ccc2c(c1)OCO2,inconclusive: 41.4%
6,C=C(C)Cn1c(CNC(C)=O)nc2ccccc21,inconclusive: 39.6%
7,Cc1n[nH]c(C)c1CCN(C)Cc1cn(C)nc1-c1ccccc1F,inconclusive: 47.3%
8,CN(C)CCCOc1ccc(Cl)cc1Br,inconclusive: 55.6%
9,CC1CN(S(=O)(=O)c2cccc(C(=O)OCc3cc(=O)oc4cc(O)ccc34)c2)CC(C)O1 (centres undefined),inconclusive: 36.2%
10,CC(=O)c1c(C)[nH]c(C(=O)NCc2ccco2)c1C,inconclusive: 39.5%
11,O=C(NC1CCS(=O)(=O)C1)C12CC3CC(CC(C3)C1)C2 (centres undefined),inconclusive: 33.1%
12,Cc1ccc(OCC(=O)N/N=C/c2cn(Cc3ccccc3)c3ccccc23)cc1,inconclusive: 51.6%
13,COc1ccccc1CNC(=O)c1ccc(OCc2c(C)noc2C)c(OC)c1,inconclusive: 45%
14,CCc1ccc2c(c1)C(=O)CCC2,inactive: -0.54%
15,O=C(COc1ccc(Cl)cc1)N(Cc1ccco1)C1CCS(=O)(=O)C1 (centres undefined),inconclusive: 37.1%
16,Cc1nc2nc(CC(=O)O)[nH]n2c(=O)c1[N+](=O)[O-],inconclusive: 39.6%
17,[O-][n+]1cccc2cccc(O)c21,inactive: -10.3%
18,CCC(OC(=O)c1ccco1)C(=O)NCc1ccco1 (centres undefined),inconclusive: 43.7%
19,CN(C)CCCNC(=O)c1cc2c3ccccc3n(C)c2s1,inconclusive: 34.3%

# Individual results from above:
# CCc1ccc2c(c1)C(=O)CCC2 | inhibition: inactive: -0.54%
# CC(=O)c1cccc(N(CC(=O)Nc2ccc(F)cc2F)S(C)(=O)=O)c1 | inhibition: inactive: 7.3%
